Assay results taken from article PMC6751184, “Heme and hemoglobin utilization by Mycobacterium tuberculosis” (Nature Communications, 2019).
No constants are given. Whether binding was seen depends on the method and setting. Sequences can lack the tags named with a protein.

Biological target: DppA of Mycobacterium tuberculosis (Rv3666c), lacking the predicted signal peptide (M. tuberculosis) (UniProt A5U8Y9)
Experiment: SEC; both purified

B1: DppA of Mycobacterium tuberculosis (Rv3666c), lacking the predicted signal peptide (protein, UniProt A5U8Y9 26-541)
chain: GGGVLSPDVVLVNGGEPPNPLIPTGTNDSNGGRIIDRLFAGLMSYDAVGKPSLEVAQSIESADNVNYRITVKPGWKFTDGSPVTAHSFVDAWNYGALSTNAQLQQHFFSPIEGFDDVAGAPGDKSRTTMSGLRVVNDLEFTVRLKAPTIDFTLRLGHSSFYPLPDSAFRDMAAFGRNPIGNGPYKLADGPAGPAWEHNVRIDLVPNPDYHGNRKPRNKGLRFEFYANLDTAYADLLSGNLDVLDTIPPSALTVYQRDLGDHATSGPAAINQTLDTPLRLPHFGGEEGRLRRLALSAAINRPQICQQIFAGTRSPARDFTARSLPGFDPNLPGNEVLDYDPQRARRLWAQADAISPWSGRYAIAYNADAGHRDWVDAVANSIKNVLGIDAVAAPQPTFAGFRTQITNRAIDSAFRAGWRGDYPSMIEFLAPLFTAGAGSNDVGYINPEFDAALAAAEAAPTLTESHELVNDAQRILFHDMPVVPLWDYISVVGWSSQVSNVTVTWNGLPDYENIVKA
- binding: no binding
